Numbering of substitutions follows the chain as printed. No constants are given. Whether binding was seen depends on the method and setting. Some binding calls cover weakened binding; strength is not graded here. Values belong to the binder of their own block, whether it stands above or below them.
Assays:
[1] = target: T1, in-house generated I domain of α11β1 (human) (UniProt Q9UKX5); assay: ELISA, α11β1 I domain
T1 sequence (looked up): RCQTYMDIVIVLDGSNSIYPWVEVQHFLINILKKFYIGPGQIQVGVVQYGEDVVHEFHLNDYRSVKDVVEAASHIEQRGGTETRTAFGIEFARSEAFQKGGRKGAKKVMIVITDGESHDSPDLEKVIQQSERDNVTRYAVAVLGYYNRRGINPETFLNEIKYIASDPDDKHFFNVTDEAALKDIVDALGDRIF

Sequences of proteins named here, by UniProt entry; tags and fusion partners are left off. A change or cut given only in a name is not applied to a line headed by its entry.
UniProt P56199: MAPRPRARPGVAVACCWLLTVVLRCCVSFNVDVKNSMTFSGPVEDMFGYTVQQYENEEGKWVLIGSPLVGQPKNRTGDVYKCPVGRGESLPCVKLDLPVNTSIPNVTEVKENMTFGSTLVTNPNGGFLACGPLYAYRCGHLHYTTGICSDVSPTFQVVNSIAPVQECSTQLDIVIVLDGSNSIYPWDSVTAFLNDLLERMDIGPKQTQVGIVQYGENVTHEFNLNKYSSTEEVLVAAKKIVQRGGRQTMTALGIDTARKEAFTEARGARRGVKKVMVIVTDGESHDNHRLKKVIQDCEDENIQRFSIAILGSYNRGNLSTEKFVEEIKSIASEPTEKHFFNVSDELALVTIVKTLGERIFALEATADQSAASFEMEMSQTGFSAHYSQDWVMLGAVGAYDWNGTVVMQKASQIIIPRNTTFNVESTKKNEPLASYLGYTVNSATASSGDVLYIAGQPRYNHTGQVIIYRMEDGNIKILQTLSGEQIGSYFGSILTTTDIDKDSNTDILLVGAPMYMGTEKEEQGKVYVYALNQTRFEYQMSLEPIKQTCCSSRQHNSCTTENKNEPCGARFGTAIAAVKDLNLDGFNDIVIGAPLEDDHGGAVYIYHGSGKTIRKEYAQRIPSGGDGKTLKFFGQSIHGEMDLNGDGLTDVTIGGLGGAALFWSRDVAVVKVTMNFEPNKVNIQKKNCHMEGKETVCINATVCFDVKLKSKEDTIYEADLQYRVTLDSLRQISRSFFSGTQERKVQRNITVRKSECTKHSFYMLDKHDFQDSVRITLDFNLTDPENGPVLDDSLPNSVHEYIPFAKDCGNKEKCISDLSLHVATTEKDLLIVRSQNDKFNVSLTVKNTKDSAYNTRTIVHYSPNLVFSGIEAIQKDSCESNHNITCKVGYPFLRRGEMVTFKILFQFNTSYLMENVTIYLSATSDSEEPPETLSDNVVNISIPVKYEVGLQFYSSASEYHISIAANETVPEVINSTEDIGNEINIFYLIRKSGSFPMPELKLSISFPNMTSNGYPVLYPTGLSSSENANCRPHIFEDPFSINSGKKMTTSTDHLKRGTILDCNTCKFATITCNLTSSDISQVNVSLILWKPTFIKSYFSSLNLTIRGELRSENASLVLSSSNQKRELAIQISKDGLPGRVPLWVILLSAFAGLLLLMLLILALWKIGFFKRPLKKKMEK
UniProt P05556: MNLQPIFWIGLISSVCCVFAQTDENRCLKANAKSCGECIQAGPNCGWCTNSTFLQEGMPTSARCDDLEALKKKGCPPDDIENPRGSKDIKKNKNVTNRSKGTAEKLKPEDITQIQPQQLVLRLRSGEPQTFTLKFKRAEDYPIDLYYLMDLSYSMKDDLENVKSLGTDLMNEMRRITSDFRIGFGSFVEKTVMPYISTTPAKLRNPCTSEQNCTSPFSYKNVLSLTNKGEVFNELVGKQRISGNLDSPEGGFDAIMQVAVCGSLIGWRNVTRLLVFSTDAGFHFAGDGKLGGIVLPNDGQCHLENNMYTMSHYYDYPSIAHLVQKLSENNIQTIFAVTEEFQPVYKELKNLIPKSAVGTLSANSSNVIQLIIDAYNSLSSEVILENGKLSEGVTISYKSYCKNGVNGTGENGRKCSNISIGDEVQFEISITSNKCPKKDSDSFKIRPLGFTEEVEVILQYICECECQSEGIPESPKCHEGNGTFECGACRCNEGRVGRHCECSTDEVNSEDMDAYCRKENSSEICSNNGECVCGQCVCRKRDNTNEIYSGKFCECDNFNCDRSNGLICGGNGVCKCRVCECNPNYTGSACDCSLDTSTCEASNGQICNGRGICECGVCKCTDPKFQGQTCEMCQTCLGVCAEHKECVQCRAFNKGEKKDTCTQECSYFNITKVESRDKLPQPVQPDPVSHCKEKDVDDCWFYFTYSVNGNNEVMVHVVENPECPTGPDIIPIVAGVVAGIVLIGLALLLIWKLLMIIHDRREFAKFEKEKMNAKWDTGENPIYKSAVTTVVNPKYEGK
UniProt P17301: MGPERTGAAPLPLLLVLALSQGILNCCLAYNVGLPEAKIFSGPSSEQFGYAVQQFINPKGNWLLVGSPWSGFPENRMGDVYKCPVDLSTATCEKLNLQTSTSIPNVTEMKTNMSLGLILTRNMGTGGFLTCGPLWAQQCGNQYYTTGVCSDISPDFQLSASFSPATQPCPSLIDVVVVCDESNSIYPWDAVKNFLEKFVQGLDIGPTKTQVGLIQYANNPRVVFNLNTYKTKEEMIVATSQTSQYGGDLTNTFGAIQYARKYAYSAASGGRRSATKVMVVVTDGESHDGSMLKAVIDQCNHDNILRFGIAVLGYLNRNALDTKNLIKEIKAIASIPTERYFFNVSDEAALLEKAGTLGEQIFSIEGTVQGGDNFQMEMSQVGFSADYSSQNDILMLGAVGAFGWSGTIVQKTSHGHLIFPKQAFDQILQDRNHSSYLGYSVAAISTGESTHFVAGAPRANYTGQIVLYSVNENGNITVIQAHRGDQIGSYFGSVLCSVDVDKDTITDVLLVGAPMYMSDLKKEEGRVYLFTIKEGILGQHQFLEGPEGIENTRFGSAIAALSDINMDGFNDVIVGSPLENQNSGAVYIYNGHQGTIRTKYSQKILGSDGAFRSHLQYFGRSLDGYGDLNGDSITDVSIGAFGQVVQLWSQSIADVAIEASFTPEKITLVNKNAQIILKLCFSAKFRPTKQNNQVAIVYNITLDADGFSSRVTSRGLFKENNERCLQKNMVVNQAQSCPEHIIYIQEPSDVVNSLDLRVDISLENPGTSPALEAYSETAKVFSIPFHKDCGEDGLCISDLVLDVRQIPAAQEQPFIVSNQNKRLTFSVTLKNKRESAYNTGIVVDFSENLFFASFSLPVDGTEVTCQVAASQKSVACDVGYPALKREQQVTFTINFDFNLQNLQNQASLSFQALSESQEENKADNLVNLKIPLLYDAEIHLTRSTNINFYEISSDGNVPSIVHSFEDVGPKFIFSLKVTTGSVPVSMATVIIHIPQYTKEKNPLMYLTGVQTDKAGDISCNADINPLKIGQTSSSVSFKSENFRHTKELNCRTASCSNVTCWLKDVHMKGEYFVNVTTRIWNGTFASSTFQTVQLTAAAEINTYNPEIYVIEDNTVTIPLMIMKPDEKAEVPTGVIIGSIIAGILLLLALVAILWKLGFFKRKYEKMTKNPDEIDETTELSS
UniProt O75578: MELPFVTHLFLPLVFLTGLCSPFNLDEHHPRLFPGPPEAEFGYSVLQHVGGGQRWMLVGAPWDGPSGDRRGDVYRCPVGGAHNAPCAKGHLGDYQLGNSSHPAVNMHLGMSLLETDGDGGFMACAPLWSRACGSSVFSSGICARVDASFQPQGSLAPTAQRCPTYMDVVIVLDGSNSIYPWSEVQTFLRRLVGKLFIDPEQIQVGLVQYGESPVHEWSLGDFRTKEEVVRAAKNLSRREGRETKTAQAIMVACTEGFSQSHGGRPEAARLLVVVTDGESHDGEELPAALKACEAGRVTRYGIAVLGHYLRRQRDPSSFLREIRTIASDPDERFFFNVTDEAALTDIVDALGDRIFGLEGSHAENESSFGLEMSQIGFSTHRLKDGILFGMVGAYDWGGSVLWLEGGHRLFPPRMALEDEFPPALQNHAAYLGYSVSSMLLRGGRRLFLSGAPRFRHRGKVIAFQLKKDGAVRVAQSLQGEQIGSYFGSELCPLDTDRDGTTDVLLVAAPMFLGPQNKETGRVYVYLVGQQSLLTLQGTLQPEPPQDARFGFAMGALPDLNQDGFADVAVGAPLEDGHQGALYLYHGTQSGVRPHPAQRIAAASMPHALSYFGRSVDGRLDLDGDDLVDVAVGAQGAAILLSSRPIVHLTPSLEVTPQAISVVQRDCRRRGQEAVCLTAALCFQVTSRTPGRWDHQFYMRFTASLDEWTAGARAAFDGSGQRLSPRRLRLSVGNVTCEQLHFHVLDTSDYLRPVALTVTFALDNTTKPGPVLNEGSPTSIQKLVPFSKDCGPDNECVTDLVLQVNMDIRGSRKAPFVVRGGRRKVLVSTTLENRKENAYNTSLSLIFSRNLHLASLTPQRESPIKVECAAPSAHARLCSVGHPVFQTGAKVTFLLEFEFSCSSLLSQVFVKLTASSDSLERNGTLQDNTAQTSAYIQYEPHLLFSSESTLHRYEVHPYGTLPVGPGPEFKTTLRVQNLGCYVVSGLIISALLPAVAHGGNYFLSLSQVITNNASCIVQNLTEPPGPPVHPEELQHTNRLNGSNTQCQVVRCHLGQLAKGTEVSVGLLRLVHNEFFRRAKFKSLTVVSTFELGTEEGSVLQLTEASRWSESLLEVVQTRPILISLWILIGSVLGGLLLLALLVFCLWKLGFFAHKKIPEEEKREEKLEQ
UniProt P09055: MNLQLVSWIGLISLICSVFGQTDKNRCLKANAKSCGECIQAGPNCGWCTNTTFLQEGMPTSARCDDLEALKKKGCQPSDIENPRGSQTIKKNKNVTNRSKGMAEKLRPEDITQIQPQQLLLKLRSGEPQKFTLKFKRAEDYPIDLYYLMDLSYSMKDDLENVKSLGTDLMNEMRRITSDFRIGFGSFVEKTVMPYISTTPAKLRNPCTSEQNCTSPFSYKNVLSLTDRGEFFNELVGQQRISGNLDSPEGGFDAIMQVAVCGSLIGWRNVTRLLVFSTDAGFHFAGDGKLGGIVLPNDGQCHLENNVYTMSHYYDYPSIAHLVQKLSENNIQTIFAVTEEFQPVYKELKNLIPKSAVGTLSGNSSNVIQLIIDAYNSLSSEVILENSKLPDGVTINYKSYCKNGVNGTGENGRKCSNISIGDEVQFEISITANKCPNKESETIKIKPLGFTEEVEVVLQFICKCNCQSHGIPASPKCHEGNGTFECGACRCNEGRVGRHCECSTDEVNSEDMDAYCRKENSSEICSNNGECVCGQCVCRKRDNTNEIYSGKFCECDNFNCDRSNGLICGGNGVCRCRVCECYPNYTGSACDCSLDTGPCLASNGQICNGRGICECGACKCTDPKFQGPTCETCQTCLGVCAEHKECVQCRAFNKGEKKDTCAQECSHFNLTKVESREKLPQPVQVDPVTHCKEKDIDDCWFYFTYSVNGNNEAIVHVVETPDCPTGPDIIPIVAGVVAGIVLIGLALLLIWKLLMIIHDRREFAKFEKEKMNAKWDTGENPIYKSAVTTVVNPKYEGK

[2] = target: T1, in-house generated I domain of α11β1 (human); assay: SPR
[3] = target: T1, in-house generated I domain of α11β1 (human); assay: SPR on the a11b1 I Domain, single-cycle injections of 33, 100 and 300 nM; HBSP trace as blank
[4] = target: T1, in-house generated I domain of α11β1 (human); assay: ELISA on the human α11β1 I domain, OD 450nm
[5] = target: T1, in-house generated I domain of α11β1 (human); assay: ELISA, in-house generated I domain
[6] = target: T2, human integrin α1β1 (human) (UniProt P56199+P05556); assay: counter-screen
[7] = target: T3, human integrin α2β1 (human) (UniProt P17301+P05556); assay: counter-screen
[8] = target: T4, human integrin α10β1 (human) (UniProt O75578+P05556); assay: counter-screen
[9] = target: recombinant mouse integrin alpha 11 beta 1 (α11β1) (mouse) (UniProt P61622+P09055); assay: ELISA, recombinant mouse α11β1
[10] = target: T2, human integrin α1β1 (human); assay: counter-screen against other collagen receptors
[11] = target: T3, human integrin α2β1 (human); assay: counter-screen against other collagen receptors
[12] = target: T4, human integrin α10β1 (human); assay: counter-screen against other collagen receptors
[13] = target: recombinant human integrin alpha 11 beta 1 (α11β1) (human) (UniProt Q9UKX5+P05556); assay: ELISA, recombinant human α11β1

binding [1]: binds
B1: 9-B11 (antibody, V domains shown)
VH: QVQLQQPGAELVRPGTSVKLSCKASGYTFTSYWMHWVQQRPGQGLEWIGVIDPSDSYTNYNQKFKGKATLTVDTSSSSAYMQLSSLTSEDSAVYYCARDDVAMDYWGQGTSVTVSS
VL: DIVVTQSPASLAVSLGQRATISCRASESVDSYGNSFIHWYQQKPGQPPKLLIYRASNLKSGIPARFSGSGSRTDFTLTINPVEADDVATYYCQQSNEDPYTFGGGTKLEIK

binding [1]: binds
B2: 10-L15 (antibody, V domains shown)
VH: QVQLQQSGPELVRPGASVKMSCKASGYTFTSYWMHWVKQRPGQGLEWIGMIDPSNSETWLNQKFKDKATLNVDKSSNTAYMQLSSLTSEDSAVYYCARYDGYYDYWGQGTTLTVSS
VL: NIVLTQSPASLAVSLGQRATISCRASESVDSYGNSFMHWYQQKPGQPPKLLIYLASNVESGVPARFSGSGSRTDFTLTIDPVEADDAATYYCQQNNEDPWTFGGGTKLEIK

binding [2]: binds
binding [3]: binds
binding [1]: binds
binding [4]: binds
B3: 9-G05 (antibody, V domains shown)
VH: EVQLQQSGPELVKPGASVKIPCKASGYTFPDYNMDWVKQSHGKSLEWIGYINPDNGGTIYNQKFKGKATLTVDKSSSTAYMELRSLTSEDTAVYYCARLDSSGYGYYAMDYWGQGTSVTVSS
VL: DIVLTQSPASLAVSLGQRATISCRASESVDNYGISFMHWYQQKPGQPPKLLIYRASNLDSEIPARFSGSGSRTDFTLTIDPVETDDVATYYCQQSYKDPRTFGGGTKLEIK

binding [1]: binds
binding [4]: binds
B4: 9-E16 (antibody, V domains shown)
VH: EVQLQQSGPELVKPGASVKISCKASGYTFTDYYMHWVKQKPGQGLEWIGEIYPGSGNPYYNEKFKGKATLTADKSSSSAYMQLSSLTSEDSAVYFCARTSYGRVGTGFAYWGQGTLVTVSA
VL: NFVMTQTPLSLPVSLGDQASISCRSSQSLLHSNGNTYLHWYLQKPGQSPKLLIYKVSNRFSGVPDRFSGSGSGTDFTLKINRVETEDLGIYFCSQSSHVPTFGAGTKLELK

binding [2]: binds
binding [5]: binds
binding [3]: binds
binding [1]: binds
binding [4]: binds
B5: 79E3E3 (antibody, V domains shown)
VH: QIQLVQSGPEVKKPGESVKISCKASGYTFTDYAMNWVKQAPGNGLKWMGWINTQTGKPTYADDFKQRFVFSLETSARTTYLQINNLNIEDTATYFCTRLGTGNTKGFAYWGQGTLVTVSS
VL: DILINQSPASLTVSAGERVTMSCKSSQSLLYSENNQDYLAWYQQKPGQFPKLLIYGASNRHTGVPDRFTGSGSGTDFTLTISSVQAEDLADYYCEQTYRYPFTFGSGTKLEIK

binding [1]: binds
B6: 10-F23 (antibody, V domains shown)
VH: QVTLKESGPGILQPSQTLSLTCSFSGFSLSTFAMGVGWIRQPSGKGLEWLAHIWWDDDKYYNPALKSRLTISKDTSKNHVFLKIANVDTADTATYYCARMPLTFYFDYWGQGTTLTVSS
VL: DVLLTQTPLSLPVSLGDQASISCRSSQSIVHSNGHTYLEWYLQKPGQSPKLLIYKVSNRFSGVPDRFSGSGSGTDFTLKISRVEAEDLGVYYCFQGSHVPFTFGGGTKLEIK

binding [1]: binds
B7: 6-A12 (antibody, V domains shown)
VH: B6 VH with S30R, H79Q
VL: B6 VL with L4M, H35N, N58T

binding [6]: binds
binding [7]: binds
binding [8]: binds
binding [9]: binds
binding [10]: binds
binding [11]: binds
binding [12]: binds
binding [13]: binds
B8: 40G10H11 (antibody, V domains shown)
VH: AVQLVESGGGLVQPGRSLKLSCAASRITFTDYYMAWVRQAPTKGLEWVATISSDGGDTFYRDSVKGRFTISRDNAKSTLYLQMVSLRSEDTATYYCSTDRGAQFGYWGQGTLVTVSS
VL: DIQMTQSPSFLSASVGDRVSINCKASQNVHENLNWYQQKLGEAPKRLIYNTNNLQTGIPSRFSGSGSGADYTLTISSLQPEDFATYFCLQHNAFPYTFGPGTKLELK
